Results on two substances are retold here after PMC8052345.

No constants are given. Whether binding was seen depends on the method and setting. In cells and extracts the contact can be indirect. Binding can be weak; no strength is given. Sequences can lack the tags named with a protein.

The target of the assay is T1, Flag-tagged dual-specificity phosphatase 16 (DUSP16) (human) (UniProt Q9BY84).
T1 sequence: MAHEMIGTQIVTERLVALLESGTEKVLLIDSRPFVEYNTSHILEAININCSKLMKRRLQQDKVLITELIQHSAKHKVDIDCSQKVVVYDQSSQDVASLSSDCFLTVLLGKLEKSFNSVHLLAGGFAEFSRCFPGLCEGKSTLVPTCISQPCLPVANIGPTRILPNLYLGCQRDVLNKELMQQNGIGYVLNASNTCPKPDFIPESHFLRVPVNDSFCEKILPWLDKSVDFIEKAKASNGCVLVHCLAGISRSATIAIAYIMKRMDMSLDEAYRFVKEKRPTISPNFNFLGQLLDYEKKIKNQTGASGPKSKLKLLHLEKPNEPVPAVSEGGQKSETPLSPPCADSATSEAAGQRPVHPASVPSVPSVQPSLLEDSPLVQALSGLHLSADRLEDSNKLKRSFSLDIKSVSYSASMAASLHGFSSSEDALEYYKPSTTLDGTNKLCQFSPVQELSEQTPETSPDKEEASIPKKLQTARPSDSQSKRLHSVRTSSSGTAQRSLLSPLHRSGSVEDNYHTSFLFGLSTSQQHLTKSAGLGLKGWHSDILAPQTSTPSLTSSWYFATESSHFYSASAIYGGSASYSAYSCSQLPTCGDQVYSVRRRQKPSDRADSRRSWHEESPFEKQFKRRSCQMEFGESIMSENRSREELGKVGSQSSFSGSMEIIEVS
The experiment in a line: co-IP; Flag-tagged DUSP16 expression plasmid transfected into HEK293 T cells; DUSP16 immunoprecipitated; endogenous JNK, p38 and BAX examined in the precipitate.

As for “c-Jun N-terminal kinase (JNK), endogenous (human (endogenous in HEK293 T)) (enzyme)”, the binding result was “binds”. For “p38 kinase, endogenous (human (endogenous in HEK293 T)) (enzyme)”, the binding entry is recorded as “binds”.
